Measurements as given in PubChem BioAssay AID504834 (National Center for Advancing Translational Sciences (NCATS), 2011).
In all, about 320,000 compounds went through this assay and about 22,000 (6.9%) were called active. This list was built around the results that the source calls inconclusive (neither active nor inactive); the mix of calls is not that of the screen. Calls follow the shape of the dose curve; as a rule, active = well fitted inhibition curve with a large enough effect; inconclusive = small, poorly fitted or top-dose-only effect, or another doubt; inactive = no such curve, though single readings can be large or run the other way. Potencies beside an inconclusive call are fits to weak or partial responses and may not hold up.
% is scaled to controls: 0 for no effect and ±100 for the full control effect; potency is read from the fitted curve at half-maximal effect.

Assay: Primary qHTS for delayed death inhibitors of the malarial parasite plastid, 96 hour incubation
Conditions: P. falciparum luciferase reporter growth; series mostly up to 28.7 µM; activity change, negative = inhibition: at the top concentration
Procedure, shortened: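 P. falciparum expressing integrated firefly luciferase, in erythrocytes at 2% hematocrit, 0.05% parasitemia, incubated with compounds 96 h at 37 C, 5% CO2. Growth inhibition read as loss of luminescence; two-generation exposure targets delayed-death apicoplast inhibitors.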
For `COC(=O)[C@@]1(Cc2ccc(OC)cc2)[C@H]2c3cc(C(=O)N4CCCC4)n(CCO)c3C[C@H]2CN1C(=O)c1ccccc1`, the Potency was active: 4.65 µM.
With `O=C(CN(C(=O)CNC(=O)c1ccco1)c1ccc(Cl)c(Cl)c1)NC1CCCCC1` the Potency was inconclusive: 11.7 µM [inhibitor, single point].
For `CCCN1Cc2cccc(C(=O)N3CCN(c4ccc(OC)cc4)CC3)c2C1=O`, the Potency was inconclusive: 2.94 µM [inhibitor, full curve, poor fit].
With `COc1ccc(Cn2c(=O)[nH]c3cc(C(=O)N4CCN(c5ccc(C(C)=O)cc5)CC4)ccc3c2=O)cc1` the Potency was active: 11.7 µM.
With `COc1ccccc1C(=O)N/C(=C\c1cn(C)c2ccccc12)C(=O)NCCCN1CCOCC1` the Potency was inconclusive: 18.5 µM [inhibitor, single point].
With `COc1ccc(/C=C(\C#N)C(=O)OCC(=O)NCc2ccc(Cl)cc2)cc1` the Potency was inconclusive: 18.5 µM [inhibitor, single point].
For `CCn1c(SCC(=O)N(C)CC(=O)Nc2ccc(OC)cc2)nnc1-c1ccco1`, the Potency was inconclusive: 18.5 µM [inhibitor, single point].
For `Cc1ccc(NC(=S)N2CCCN(Cc3ccc(F)cc3)C2)c(C)c1`, the Potency was inconclusive: 18.5 µM [inhibitor, single point].
In the case of `O=C(CCCNC(=O)/C(=C/c1ccc(F)cc1)NC(=O)c1ccccc1)OCc1ccccc1`, the Potency is reported as inconclusive: 10.4 µM [inhibitor, single point].
With `O=C(Nc1cccc(-n2cnnn2)c1)c1cccs1` the Potency was inconclusive: 5.22 µM [inhibitor, partial curve, poor fit].
For `Cc1sc2c(c1C)CN(Cc1ccncc1)CN2C(=O)c1ccco1`, the Potency was inconclusive: 13.1 µM [inhibitor, single point].
For `CCOc1cc(C#N)ccc1OCC(=O)NNC(=O)CC1CCS(=O)(=O)C1` (stereo not drawn), the “activity change, negative = inhibition” value was inactive: 17.4%.
With `COc1ccc(S(N)(=O)=O)cc1C(=O)NCCCN1CCN(c2cccc(Cl)c2)CC1` the Potency was inconclusive: 16.5 µM [inhibitor, single point].
For `COc1ccc(C(=O)/C=C/c2cccs2)c(OC(=O)N2CCOCC2)c1`, the Potency was inconclusive: 13.1 µM [inhibitor, partial curve, poor fit].
In the case of `CCN1CCN(CCOCCOc2ccccc2-c2ccccc2)CC1`, the Potency is reported as inconclusive: 13.1 µM [inhibitor, partial curve].
With `C=CCN(C(=O)c1ccccn1)C(C(=O)NCc1ccccc1)c1ccccc1F` (stereo not drawn) the “activity change, negative = inhibition” value was inactive: 22.9%.
With `O=C(NCc1ccco1)c1cccn2c(=O)c3cc4ccccc4cc3nc12` the Potency was inconclusive: 16.5 µM [inhibitor, single point].
For `Cc1cc(Cl)cc(Cl)c1OCCOc1cccc2cccnc12`, the Potency was active: 4.15 µM.
For `O=C(NC1CCCCCC1)C1CCC(=O)N(Cc2ccccc2F)C1` (stereo not drawn), the Potency was inconclusive: 10.4 µM [inhibitor, partial curve, poor fit].
For `CC(/C=N/NC(=O)CSc1ccccn1)=C\c1ccc(C(C)C)cc1`, the Potency was inconclusive: 18.5 µM [inhibitor, single point].
In the case of `O=C(CNC(=O)c1ccccn1)N/N=C/c1ccc2c(c1)OCO2`, the Potency is reported as inconclusive: 5.22 µM [inhibitor, partial curve, poor fit].
For `Clc1ccccc1OCc1nc(-c2ccc(Br)o2)no1`, the “activity change, negative = inhibition” value was inactive: 3.28%.
With `Nc1ccc(S(=O)(=O)Nc2ccccc2)cc1` the “activity change, negative = inhibition” value was inactive: -0.52%.
With `COc1ccccc1NC(=O)N1CCCC1C(=O)NC12CC3CC(CC(C3)C1)C2` (stereo not drawn) the “activity change, negative = inhibition” value was inactive: 39.7%.
In the case of `COc1ccc(NC(=O)CSc2nnc(-c3ccccc3C)n2C)cc1`, the “activity change, negative = inhibition” value is reported as inactive: 15.5%.
In the case of `COCCCC1CCN(Cc2nc(-c3ccccc3)no2)CC1`, the “activity change, negative = inhibition” value is reported as inactive: 0.452%.
With `N#Cc1ccc(NC(=O)c2cc(-c3cccs3)on2)cc1` the “activity change, negative = inhibition” value was inactive: -1.33%.
With `Oc1[nH]c2ccc(Br)cc2c1N=Nc1ccc(F)cc1` the “activity change, negative = inhibition” value was inactive: 43%.
In the case of `O=C(O)c1ccc(-n2c(/C=C/c3cccc([N+](=O)[O-])c3)nc3ccccc3c2=O)cc1`, the Potency is reported as inconclusive: 9.28 µM [inhibitor, partial curve].
In the case of `COc1cc2c3c(c1OC)C1(C=CC(=NO)C=C1)CC3N(C(C)=O)CC2` (stereo not drawn), the Potency is reported as inconclusive: 0.0023 µM [inhibitor, full curve, poor fit].
With `O=C(CN1CCCCCC1)Nc1cccc([N+](=O)[O-])c1` the Potency was inconclusive: 3.7 µM [inhibitor, single point].
In the case of `CC(=O)NCC(=O)OC(C)C(=O)Nc1ccc(C(C)=O)cc1` (stereo not drawn), the Potency is reported as inconclusive: 2.33 µM [inhibitor, single point].
In the case of `CCn1c(C)cc(=O)cc1-c1ccc(Cl)cc1`, the “activity change, negative = inhibition” value is reported as inactive: -8.16%.
For `Oc1ccc(/C=N/Nc2cc(N3CCOCC3)nc(N3CCOCC3)n2)cc1O`, the “activity change, negative = inhibition” value was inactive: 28.9%.
With `O=C(C1CCCN(S(=O)(=O)c2cccnc2)C1)N1CCN(c2ccccn2)CC1` (stereo not drawn) the Potency was inconclusive: 18.5 µM [inhibitor, single point].
For `NC(=O)c1ccc(S(=O)(=O)N2CCSCC2)cc1`, the Potency was active: 10.4 µM.
In the case of `COc1ccc(S(=O)(=O)N2CCN(CC(O)CN3CCOCC3)CC2)cc1` (stereo not drawn), the Potency is reported as inconclusive: 10.4 µM [inhibitor, single point].
With `CCCCC(=O)OCc1c(-c2cccc(OC)c2)ncc2ccccc12` the Potency was inconclusive: 16.5 µM [inhibitor, single point].
With `CCOC(=O)CC1C(=O)NCCN1c1nc2ccc(C)cn2c(=O)c1/C=C1\SC(=S)N(CC(C)C)C1=O` (stereo not drawn) the Potency was inconclusive: 1.17 µM [inhibitor, full curve, poor fit].
In the case of `O=C(c1sc2cccc(Cl)c2c1Cl)N1CCN(CCc2ccccn2)CC1`, the “activity change, negative = inhibition” value is reported as inactive: -4.01%.
For `CSc1ccccc1NC(=O)CN(C)C(C)C(=O)Nc1ccc(C#N)cc1` (stereo not drawn), the Potency was inconclusive: 7.38 µM [inhibitor, partial curve, poor fit].
In the case of `O=C(CCNc1ccc(Cc2ccncc2)cc1)c1ccc([N+](=O)[O-])cc1`, the Potency is reported as inconclusive: 18.5 µM [inhibitor, single point].
For `CCN1CCN(C(c2cccs2)C(C)NC(=O)c2cccnc2)CC1` (stereo not drawn), the Potency was inconclusive: 4.15 µM [inhibitor, partial curve, poor fit].
With `Cn1c(=O)c2[nH]c(N3CCN(c4cccc(O)c4)CC3)nc2n(C)c1=O` the Potency was inconclusive: 10.4 µM [inhibitor, single point].
For `Cc1cc(C)c(C(=O)OCCNC(=O)c2cccnc2)cc1C`, the “activity change, negative = inhibition” value was inactive: 7.97%.
In the case of `O=C(O)c1ccccc1C(=O)c1ccc(N2CCCC2)c([N+](=O)[O-])c1`, the Potency is reported as active: 11.7 µM.
In the case of `O=C(Nc1c(C(=O)Nc2cccc(F)c2)oc2ccccc12)c1ccc2c(c1)OCO2`, the Potency is reported as inconclusive: 0.0233 µM [inhibitor, full curve].
For `CC(NS(=O)(=O)c1ccc(Cl)cc1)C(=O)NCCC1=CCCCC1` (stereo not drawn), the Potency was inconclusive: 18.5 µM [inhibitor, partial curve, poor fit].
In the case of `CCNC(=O)C1Cc2cc(S(=O)(=O)N3CCCC3)ccc2N1C(C)=O` (stereo not drawn), the Potency is reported as inconclusive: 14.7 µM [inhibitor, single point].
With `CN(Cc1cn(-c2ccccc2)nc1-c1cc2ccccc2o1)C(=O)CCC(=O)O` the “activity change, negative = inhibition” value was inactive: -11.3%.
For `CC1CCN(S(=O)(=O)c2ccccc2[N+](=O)[O-])CC1`, the Potency was inconclusive: 10.4 µM [inhibitor, single point].
In the case of `COc1ccc(CC(=O)OCC(=O)N2CCCc3ccccc32)cc1OC`, the “activity change, negative = inhibition” value is reported as inactive: 2.66%.
In the case of `Cn1c(=O)[nH]c(=O)c2c1nc(Br)n2Cc1cccc(Br)c1`, the Potency is reported as inconclusive: 18.5 µM [inhibitor, partial curve, poor fit].
In the case of `O=C(Cc1ccc(-c2ccccc2)cc1)NNC(=S)NCc1ccco1`, the Potency is reported as inconclusive: 8.28 µM [inhibitor, single point].
With `COc1ccc(NC(C)=O)cc1NC(=O)CSc1nnc(-c2cccnc2)n1C` the Potency was inconclusive: 0.37 µM [inhibitor, full curve, poor fit].
In the case of `CC(CN1CCOCC1)c1ccccc1` (stereo not drawn), the “activity change, negative = inhibition” value is reported as inactive: 25.6%.
In the case of `Cc1ccccc1NC(=O)NCC1CCN(C(=O)OC(C)(C)C)CC1`, the Potency is reported as inconclusive: 18.5 µM [inhibitor, single point].
In the case of `Cn1c(O)c(/C=C2\C=Nc3ccccc32)c(=O)n(C)c1=O`, the “activity change, negative = inhibition” value is reported as inactive: 45.5%.
With `O=C(CN1CCN(c2ccc(O)cc2)CC1)NC(c1ccccc1)c1ccccc1` the Potency was inconclusive: 18.5 µM [inhibitor, single point].
In the case of `Cc1ccc(NS(=O)(=O)c2ccc(C(=O)N3CCCCCCC3)cc2)cc1`, the Potency is reported as active: 2.08 µM.
With `C[C@@H](C(=O)NCc1ccccc1)[C@H]1C[C@]1(C)[C@H](NC(=O)OCc1ccccc1)c1ccccc1` the Potency was inconclusive: 13.1 µM [inhibitor, single point].
With `Cc1onc(-c2c(F)cccc2Cl)c1C(=O)NC1CCCCCC1` the Potency was inconclusive: 13.1 µM [inhibitor, partial curve].
For `CC(C)Sc1nc2c(c(=O)[nH]c(=O)n2C)n1C`, the Potency was inconclusive: 3.7 µM [inhibitor, partial curve, poor fit].
In the case of `COc1cnn(-c2ccccc2)c(=O)c1SCc1ccc(Cl)c(Cl)c1`, the Potency is reported as inconclusive: 8.28 µM [inhibitor, partial curve].
In the case of `O=C(NC1CC2CCCC(C1)N2Cc1ccccc1)c1ccc([N+](=O)[O-])cc1` (stereo not drawn), the Potency is reported as active: 0.37 µM.
In the case of `Cc1ccc(N(CC(O)CN(C)C)S(=O)(=O)c2ccccc2)cc1` (stereo not drawn), the Potency is reported as inconclusive: 13.1 µM [inhibitor, single point].
For `Cc1csc(NC(=O)CSc2nncn2C)n1`, the Potency was inconclusive: 13.1 µM [inhibitor, partial curve].
In the case of `CCN1CCN(C(=O)C(C)Oc2ccc(S(=O)(=O)N3CCCC3)cc2C(N)=O)CC1` (stereo not drawn), the Potency is reported as inconclusive: 13.1 µM [inhibitor, single point].
